Reference: article PMC10850815
These are yes or no findings as the source states them, for the method shown. In cells and extracts the contact can be indirect. These calls come from enrichment with a bait or labelling near it, and not all partners need be listed.

The chains behind the UniProt entries cited, without tags or fusion partners. Residues count along the entry.
UniProt Q9NZQ7, residues 19-290: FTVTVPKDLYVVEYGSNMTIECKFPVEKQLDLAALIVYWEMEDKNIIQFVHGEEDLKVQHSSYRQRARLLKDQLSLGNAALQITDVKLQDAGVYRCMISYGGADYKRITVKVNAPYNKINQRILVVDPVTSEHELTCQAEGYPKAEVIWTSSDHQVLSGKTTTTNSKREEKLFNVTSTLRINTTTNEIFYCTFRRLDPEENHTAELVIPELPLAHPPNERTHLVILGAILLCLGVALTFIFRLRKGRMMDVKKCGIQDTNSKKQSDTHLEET
UniProt P38919: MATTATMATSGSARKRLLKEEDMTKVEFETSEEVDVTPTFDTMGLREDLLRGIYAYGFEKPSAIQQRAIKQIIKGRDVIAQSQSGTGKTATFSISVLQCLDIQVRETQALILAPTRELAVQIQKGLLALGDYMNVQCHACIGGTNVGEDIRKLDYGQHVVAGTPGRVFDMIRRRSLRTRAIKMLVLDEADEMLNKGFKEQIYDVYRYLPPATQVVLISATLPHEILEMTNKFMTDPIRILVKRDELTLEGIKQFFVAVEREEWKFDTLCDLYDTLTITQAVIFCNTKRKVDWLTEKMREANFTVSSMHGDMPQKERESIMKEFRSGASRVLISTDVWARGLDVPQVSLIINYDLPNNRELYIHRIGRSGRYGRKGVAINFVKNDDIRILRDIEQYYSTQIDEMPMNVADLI
UniProt O75367: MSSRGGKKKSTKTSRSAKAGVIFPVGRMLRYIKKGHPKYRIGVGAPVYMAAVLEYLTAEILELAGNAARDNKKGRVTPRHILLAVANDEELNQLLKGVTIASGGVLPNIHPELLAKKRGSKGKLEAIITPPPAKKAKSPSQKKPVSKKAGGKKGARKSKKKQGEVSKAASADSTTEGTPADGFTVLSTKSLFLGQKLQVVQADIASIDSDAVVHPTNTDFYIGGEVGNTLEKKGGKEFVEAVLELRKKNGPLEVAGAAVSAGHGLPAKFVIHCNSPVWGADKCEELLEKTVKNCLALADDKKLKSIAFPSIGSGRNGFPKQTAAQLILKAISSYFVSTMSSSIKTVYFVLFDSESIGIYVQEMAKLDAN

B1: non‐POU domain containing octamer binding (protein, UniProt Q15233 1-471)
chain: MQSNKTFNLEKQNHTPRKHHQHHHQQQHHQQQQQQPPPPPIPANGQQASSQNEGLTIDLKNFRKPGEKTFTQRSRLFVGNLPPDITEEEMRKLFEKYGKAGEVFIHKDKGFGFIRLETRTLAEIAKVELDNMPLRGKQLRVRFACHSASLTVRNLPQYVSNELLEEAFSVFGQVERAVVIVDDRGRPSGKGIVEFSGKPAARKALDRCSEGSFLLTTFPRPVTVEPMDQLDDEEGLPEKLVIKNQQFHKEREQPPRFAQPGSFEYEYAMRWKALIEMEKQQQDQVDRNIKEAREKLEMEMEAARHEHQVMLMRQDLMRRQEELRRMEELHNQEVQKRKQLELRQEEERRRREEEMRRQQEEMMRRQQEGFKGTFPDAREQEIRMGQMAMGGAMGINNRGAMPPAPVPAGTPAPPGPATMMPDGTLGLTPPTTERFGQAATMEGIGAIGGTPPAFNRAAPGAEFAPNKRRRY
B2: cleavage stimulation factor subunit 1 (protein, UniProt Q05048 1-431)
chain: MYRTKVGLKDRQQLYKLIISQLLYDGYISIANGLINEIKPQSVCAPSEQLLHLIKLGMENDDTAVQYAIGRSDTVAPGTGIDLEFDADVQTMSPEASEYETCYVTSHKGPCRVATYSRDGQLIATGSADASIKILDTERMLAKSAMPIEVMMNETAQQNMENHPVIRTLYDHVDEVTCLAFHPTEQILASGSRDYTLKLFDYSKPSAKRAFKYIQEAEMLRSISFHPSGDFILVGTQHPTLRLYDINTFQCFVSCNPQDQHTDAICSVNYNSSANMYVTGSKDGCIKLWDGVSNRCITTFEKAHDGAEVCSAIFSKNSKYILSSGKDSVAKLWEISTGRTLVRYTGAGLSGRQVHRTQAVFNHTEDYVLLPDERTISLCCWDSRTAERRNLLSLGHNNIVRCIVHSPTNPGFMTCSDDFRARFWYRRSTTD

Each molecule was assayed against programmed cell death 1 ligand 1 (PD‐L1) (human (endogenous in PCI 52 and FaDu)) (UniProt Q9NZQ7) (assay: affinity purification with mass spectrometry; CoIP of endogenous PD‐L1 with anti‐PD‐L1 (E1L3N) and Protein A MicroBeads from 100 μg protein per nuclear fraction (nuclear soluble, nuclear chromatin‐bound) of FaDu and PCI 52, then LC–MS; proteins captured with the IgG isotype control excluded).
EIF4A3 (from UniProt P38919 1-411) was tested, and the binding was “binds”.
For “macroH2A.1 histone (from UniProt O75367 1-369)”, the binding was “binds”.
In the case of B1, the binding is reported as “binds”.
B2 was tested, and the binding was “binds”.
